Test results as given in US20090131702A1, “METHOD FOR THE PRODUCTION OF METAL CARBOXYLATES AND THE METAL AMINOATE OR METAL HYDROXY ANALOGUE METHIONATE DERIVATIVES THEREOF, AND USE OF SAME AS GROWTH PROMOTERS IN ANIMAL FEED” (NOREL, S.A., priority 2003, published 2009).

Settings: broilers, 43 to 46 days of age
[1] = 20 ppm of copper added to base diet

Molecule | Consumption of feed [1] [g] | Consumption of feed (150 ppm of copper added to base diet) [g]
O=S(=O)([O-])[O-].[Cu+2] [copper sulfate] | 206 | 206
Copper butyrate | 210 | 

Where two headings read alike, the source gives them in different places.
